Read-outs that look alike come from different tables or passages of the source. These are yes or no findings as the source states them, for the method shown. Binding seen in cells or lysates may run through a third protein. A result given as binding can be weak or reduced; the word gives no strength. Sequences can lack the tags named with a protein.

Experiment [1] deals with PRRSV nsp12-mCherry (PRRSV strain VR2332). As to the kind of experiment: co-IP.
Experiment [2] shares this target. As to the kind of experiment: co-IP. This is another data set of the same source.

B1: HA-tagged NDP52 (receptor, UniProt Q13137 1-446)
chain: MEETIKDPPTSAVLLDHCHFSQVIFNSVEKFYIPGGDVTCHYTFTQHFIPRRKDWIGIFRVGWKTTREYYTFMWVTLPIDLNNKSAKQQEVQFKAYYLPKDDEYYQFCYVDEDGVVRGASIPFQFRPENEEDILVVTTQGEVEEIEQHNKELCKENQELKDSCISLQKQNSDMQAELQKKQEELETLQSINKKLELKVKEQKDYWETELLQLKEQNQKMSSENEKMGIRVDQLQAQLSTQEKEMEKLVQGDQDKTEQLEQLKKENDHLFLSLTEQRKDQKKLEQTVEQMKQNETTAMKKQQELMDENFDLSKRLSENEIICNALQRQKERLEGENDLLKRENSRLLSYMGLDFNSLPYQVPTSDEGGARQNPGLAYGNPYSGIQESSSPSPLSIKKCPICKADDICDHTLEQQQMQPLCFNCPICDKIFPATEKQIFEDHVFCHSL
As for B1, the binding entry in experiment [1] and in experiment [2] was “binds” in each case.

The record behind these values is publication doi:10.1101/2025.09.02.673672.
